Measurements reported in paper PMC6270994, “The Hydractinia echinata Test-System. III: Structure-Toxicity Relationship Study of Some Azo-, Azo-Anilide, and Diazonium Salt Derivatives” (Molecules, 2014).

Tested on: Hydractinia echinata
Test: Hydractinia echinata test system (HeTS): reduction of Cs+-induced metamorphosis of larvae
Format: in vivo
Conditions: compared with Amaranth (57)
Experimental: The average (C) concentrations of these values were calculated too. The MRC50 value calculations (Chicu et al.) result from the graphical representation of the metamorphosis variation, M (%), (Y axis) function of the xenobiotic’s concentration (mol/L) (X axis), where the metamorphosis decreases with the rise of the xenobiotic’s concentration. Thus, the MRC50 value represents the xenobiotic’s concentration (mol/L) necessary for a 50% decrease of metamorphosis, with respect to control.
For each concentration of substance experiments were performed in triplicate and were repeated at least twice.
Colonies of H. echinata (Biologische Anstalt, Helgoland, Germany) were used to obtain eggs and larvae. The culture medium was artificial seawater (980 mosmol, pH 8.2, 18 °C). In laboratory an artificial metamorphosis can be synchronically started by the introduction of Cs^+ ions or by using seawater without Mg^2+ ions; it then lasts only 24 h. Under the action of external stimulus of Cs^+ ions or Cs^+ ions together with the tested compounds, one part of larvae further lives as such and another one is metamorphosized to the polyp form. […]
H. echinata larvae were exposed to seawater containing Cs^+ and simultaneously one of the test substances for 3 h. The percentage of animals that underwent metamorphosis (development into polyps) was determined after 24 h. […]

Structure (SMILES): O=S(=O)([O-])c1ccc(N=Nc2c(O)ccc3ccccc23)c2ccccc12.[Na+] [Compound 56, Acid Red 88 (Fast Red AV)]
- effectiveness higher by: 1 log unit
